Source: PMC6375388

Protein sequences, listed by entry. Tags and fused reporters are not part of them. Residues count along the entry.
UniProt P01127, 82-190: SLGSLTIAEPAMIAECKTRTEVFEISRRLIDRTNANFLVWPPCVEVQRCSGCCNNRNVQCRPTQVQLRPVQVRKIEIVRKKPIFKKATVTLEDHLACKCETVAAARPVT

Columns and labels:
PDGF-BB (Homo sapiens) [1] = biological target: PDGF-BB (Homo sapiens) (UniProt P01127); assay: growth factor retention/release from functionalized coverslip (ELISA?); conditions: minimal release versus RGD-functionalized coverslips; 5' thiol C6 and Sp18; 3' Sp18 and azide coupled to DBCO-GRGDSPC peptide; immobilized on maleimide glass; Retention of PDGF-BB on TrAP-coated glass coverslips after washing; Kd values cited; recombinant protein; folded or branched …
PDGF-BB (Homo sapiens) [2] = biological target: PDGF-BB (Homo sapiens) (UniProt P01127); assay: binding assay; conditions: Retention of PDGF-BB on TrAP-coated glass coverslips after washing; Kd values cited; recombinant protein; folded or branched DNA

| Sequence | binding result (PDGF-BB (Homo sapiens) [1]) | Kd (PDGF-BB (Homo sapiens) [2]) |
| --- | --- | --- |
| CAGGCTACGGCACGTAGAGCATCACCATGATCCTG [PDGF-BB RGD-TrAP (Apt_PDGFBB_1)] | binds | – |
| CAGGCTACGGCACGTAGAGCATCACCATGATCCTG [anti-PDGF-BB aptamer] | – | 0.1 nM |

For at least one entry, the source does not settle the construct or the ends of the probe. For some assays here: At least one verdict was read from the data and is not stated in words by the source.
